Some entries share one result that the patent states for a list of compounds.
test system: various cell lines representative of different cancer indications; assay: Anti-cancer activity, summary over several cell lines; assay type: cell-based
Procedure: IC50 values were determined for each cell line. Cells were seeded in 96-well plates at an appropriate cell density as determined from growth kinetics analysis and cultured for 5 days in the absence and presence of the test compounds. Cell proliferation was assessed after the addition of 20 μl of 3-4,5 dimethylthiazol-2,5-diphenyl tetrazolium bromide (MTT, 2.5 mg/ml in PBS, Sigma) for 3-4 hrs at 37° C. according to manufacturer's instructions. IC50 values were calculated from semi-log plots of % of control proliferation on the y-axis against log dose on the x-axis.

SMILES	activity across a number of cancer cell lines
C#CC1Oc2cc(O)ccc2C=C1c1ccc(O)cc1 (stereo not drawn) [Compound 11, 2-Ethynyl-4′,7-dihydroxyisoflav-3-ene]	moderate to very good and excellent activity
CCCC1Oc2cc(O)ccc2C=C1c1ccc(O)cc1 (stereo not drawn) [Compound 33, 3-(4-Hydroxy-phenyl)-2-propyl-2H-chromen-7-ol]	moderate to very good and excellent activity
NCC1Oc2cc(O)ccc2C=C1c1ccc(O)cc1 (stereo not drawn) [Compound 12, 2-aminomethyl-4′,7-dihydroxy-isoflav-3-ene]	moderate to very good and excellent activity
Oc1ccc(C2=Cc3ccc(O)cc3OC2c2nnn[nH]2)cc1 (stereo not drawn) [Compound 30, 4′,7-Dihydroxy-2-(tetrazol-4-yl)-isoflav-3-ene]	moderate to very good and excellent activity
Oc1ccc(C2=Cc3ccc(O)cc3OC2O)cc1 (stereo not drawn) [Compound 16, 2,4′,7-Trihydroxy-isoflav-3-ene]	moderate to very good and excellent activity
Oc1ccc(C2=Cc3ccc(O)cc3OC2c2cnnnn2)cc1 (stereo not drawn) [Compound 32, 4′,7-Dihydroxy-2-(1,2,3,4-tetrazin-4-yl)-isoflav-3-ene]	moderate to very good and excellent activity
Oc1ccc(C2=Cc3ccc(O)cc3OC2c2cccnc2)cc1 (stereo not drawn) [Compound 21, 4′,7-Dihydroxy-2-(pyridin-3-yl)-isoflav-3-ene]	moderate to very good and excellent activity
CC(C)(C)C1Oc2cc(O)ccc2C=C1c1ccc(O)cc1 (stereo not drawn) [Compound 38, 4′,7-Dihydroxy-2-(t-butyl)-isoflav-3-ene]	moderate to very good and excellent activity
O=C(NC1Oc2cc(O)ccc2C=C1c1ccc(O)cc1)c1ccccc1 (stereo not drawn) [Compound 17, 4′,7-Dihydroxy-2-(N-benzyl)methyl-isoflav-3-ene]	moderate to very good and excellent activity
Oc1ccc(C2=Cc3ccc(O)cc3OC2c2cnc[nH]2)cc1 (stereo not drawn) [Compound 28, 4′,7-Dihydroxy-2-(imidazol-4-yl)-isoflav-3-ene]	moderate to very good and excellent activity
Oc1ccc(C2=Cc3ccc(O)cc3OC2c2ccccn2)cc1 (stereo not drawn) [Compound 25, 4′,7-Dihydroxy-2-(pyridin-2-yl)-isoflav-3-ene]	moderate to very good and excellent activity
Oc1ccc(C2=Cc3ccc(O)cc3OC2OCCCBr)cc1 (stereo not drawn) [Compound 15, 2-(3-bromopropyloxy)-4′,7-dihydroxy-isoflav-3-ene]	moderate to very good and excellent activity
CSC1Oc2cc(O)ccc2C=C1c1ccc(O)cc1 (stereo not drawn) [Compound 19, 4′,7-Dihydroxy-2-methylthio-isoflav-3-ene]	moderate to very good and excellent activity
Oc1ccc(C2=Cc3ccc(O)cc3OC2c2cncnn2)cc1 (stereo not drawn) [Compound 31, 4′,7-Dihydroxy-2-(1,2,4-triazin-6-yl)-isoflav-3-ene]	moderate to very good and excellent activity
Oc1ccc(C2=Cc3ccc(O)cc3OC2c2nnc[nH]2)cc1 (stereo not drawn) [Compound 29, 4′,7-Dihydroxy-2-(1,2,4-triazol-3-yl)-isoflav-3-ene]	moderate to very good and excellent activity
COC1Oc2cc(O)ccc2C=C1c1ccc(O)cc1 (stereo not drawn) [Compound 13, 4′,7-Dihydroxy-2-methoxy-isoflav-3-ene]	moderate to very good and excellent activity
Oc1ccc(C2=Cc3ccc(O)cc3OC2c2nccs2)cc1 (stereo not drawn) [Compound 10, 4′,7-Dihydroxy-2-(2-thiazoyl)-isoflav-3-ene]	moderate to very good and excellent activity
Oc1ccc(C2=Cc3ccc(O)cc3OC2c2ccnnc2)cc1 (stereo not drawn) [Compound 22, 4′,7-Dihydroxy-2-(pyridazin-4-yl)-isoflav-3-ene]	moderate to very good and excellent activity
N#CC1Oc2cc(O)ccc2C=C1c1ccc(O)cc1 (stereo not drawn) [Compound 9, 2-Cyano-4′,7-hydroxyisoflav-3-ene]	moderate to very good and excellent activity
Oc1ccc(C2=Cc3ccc(O)cc3OC2c2cnccn2)cc1 (stereo not drawn) [Compound 24, 4′,7-Dihydroxy-2-(pyrazin-2-yl)-isoflav-3-ene]	moderate to very good and excellent activity
CCSC1Oc2cc(O)ccc2C=C1c1ccc(O)cc1 (stereo not drawn) [Compound 18, 2-Ethylthio-4′,7-dihydroxy-isoflav-3-ene]	moderate to very good and excellent activity
Oc1ccc(C2=Cc3ccc(O)cc3OC2c2c[nH]nn2)cc1 (stereo not drawn) [Compound 20, 4′,7-Dihydroxy-2-(triazo-3-yl)-isoflav-3-ene]	moderate to very good and excellent activity
Oc1ccc(C2=Cc3ccc(O)cc3OC2C(F)(F)F)cc1 (stereo not drawn) [Compound 36, 3-(4-Hydroxy-phenyl)-2-trifluoromethyl-2H-chromen-7-ol]	moderate to very good and excellent activity
CCCCC1Oc2cc(O)ccc2C=C1c1ccc(O)cc1 (stereo not drawn) [Compound 35, 2-Butyl-3-(4-hydroxy-phenyl)-2H-chromen-7-ol]	moderate to very good and excellent activity
CCOC1Oc2cc(O)ccc2C=C1c1ccc(O)cc1 (stereo not drawn) [Compound 14, 2-Ethoxy-4′,7-dihydroxy-isoflav-3-ene]	moderate to very good and excellent activity
CC(C)C1Oc2cc(O)ccc2C=C1c1ccc(O)cc1 (stereo not drawn) [Compound 34, 3-(4-Hydroxy-phenyl)-2-isopropyl-2H-chromen-7-ol]	moderate to very good and excellent activity
Oc1ccc(C2=Cc3ccc(O)cc3OC2c2ccncc2)cc1 (stereo not drawn) [Compound 26, 3-(4-Hydroxy-phenyl)-2-pyridin-4-yl-2H-chromen-7-ol]	moderate to very good and excellent activity
Oc1ccc(C2=Cc3ccc(O)cc3OC2c2ccccc2)cc1 (stereo not drawn) [Compound 37, 3-(4-Hydroxy-phenyl)-2-phenyl-2H-chromen-7-ol]	moderate to very good and excellent activity
Oc1ccc(C2=Cc3ccc(O)cc3OC2c2cncnc2)cc1 (stereo not drawn) [Compound 23, 4′,7-Dihydroxy-2-(pyrimidin-5-yl)-isoflav-3-ene]	moderate to very good and excellent activity
Oc1ccc(C2=Cc3ccc(O)cc3OC2c2ccc[nH]2)cc1 (stereo not drawn) [Compound 27, 4′,7-Dihydroxy-2-(pyrrol-2-yl)-isoflav-3-ene]	moderate to very good and excellent activity

From patent publication US20110166142A1, “2-SUBSTITUTED ISOFLAVONOID COMPOUNDS, MEDICAMENTS AND USES” (priority 2007, published 2011)
